# Source: patent US20230065799A1, “METHOD FOR ATTRIBUTING OLFACTORY TONALITIES TO OLFACTORY RECEPTOR ACTIVATION AND METHODS FOR IDENTIFYING COMPOUNDS HAVING THE ATTRIBUTED TONALITIES” (FIRMENICH SA, priority 2019, published 2023)
# For at least one compound, name, drawing or mass did not settle the structure.
# Target: T1, OR8B3 (Homo sapiens, UniProt Q8NGG8)
# T1 construct: Lucy (cleavable signal peptide) (N); FLAG (N); Rho (first 20 aa of bovine rhodopsin) (N); expressed in transfected cells
# T1 sequence (Q8NGG8 1-313): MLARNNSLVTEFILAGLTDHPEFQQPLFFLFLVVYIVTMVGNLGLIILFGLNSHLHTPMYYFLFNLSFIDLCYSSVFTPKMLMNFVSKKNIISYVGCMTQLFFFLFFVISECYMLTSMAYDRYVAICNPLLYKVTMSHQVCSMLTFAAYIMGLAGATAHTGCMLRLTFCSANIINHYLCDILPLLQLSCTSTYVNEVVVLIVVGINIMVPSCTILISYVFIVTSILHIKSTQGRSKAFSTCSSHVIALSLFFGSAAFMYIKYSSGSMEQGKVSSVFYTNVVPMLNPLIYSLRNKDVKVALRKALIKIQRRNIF
# Experiment: OR8B3 cell-based cAMP HTRF assay
# Conditions: receptor listed = activated by the compound
structure (smiles),measurement,value
"CC1(C)[C@H]2C[C@H]3CCC(=O)C=C3[C@@H]1C2 [Tricyclone, (1~{R},7~{R},9~{S})-10,10-dimethyltricyclo[7.1.1.0^{2,7}]undec-2-en-4-one]",Active OR/Linked Tonality: OR8B3 (Coumarinic),OR8B3/
